Article doi:10.1101/2025.10.07.680626
These are yes or no findings as the source states them, for the method shown. Binding can be weak; no strength is given.

Columns and labels:
Assay in all cases: cryo-EM structure
[1] = target: T1, ribosomal protein uS7 of A. baumannii (Acinetobacter baumannii ATCC BAA1605 (endogenous in the strain)) (UniProt A3M305)
T1 sequence: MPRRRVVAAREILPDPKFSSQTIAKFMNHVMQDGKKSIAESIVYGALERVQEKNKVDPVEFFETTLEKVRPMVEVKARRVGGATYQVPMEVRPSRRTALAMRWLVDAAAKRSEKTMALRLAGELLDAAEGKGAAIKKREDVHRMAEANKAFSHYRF

[2] = target: T2, ribosomal protein uS9 of P. aeruginosa (Pseudomonas aeruginosa PA14 (endogenous in the strain)) (UniProt B7UZL0)
T2 sequence: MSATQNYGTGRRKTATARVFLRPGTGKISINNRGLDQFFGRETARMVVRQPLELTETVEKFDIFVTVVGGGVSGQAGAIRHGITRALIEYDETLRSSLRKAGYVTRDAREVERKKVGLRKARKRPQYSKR

[3] = target: T3, ribosomal protein uS7 of P. aeruginosa (Pseudomonas aeruginosa PA14 (endogenous in the strain)) (UniProt B7V640)
T3 sequence: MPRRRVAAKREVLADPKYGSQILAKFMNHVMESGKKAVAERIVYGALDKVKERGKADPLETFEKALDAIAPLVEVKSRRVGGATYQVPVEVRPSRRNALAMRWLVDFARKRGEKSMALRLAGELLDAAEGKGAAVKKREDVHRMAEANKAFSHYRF

Row | Substance | binding [1] | binding [2] | binding [3]
1 | hibernation factor YfiA of A. baumannii | binds | – | –
2 | hibernation-promoting factor HPF (short form) of P. aeruginosa (from UniProt A0A071L218) | – | binds | binds
